# Data from PubChem BioAssay AID504467 (National Center for Advancing Translational Sciences (NCATS), 2011).
# Out of some 330,000 compounds screened, about 7,700 (2.3%) were called active. The inconclusive results got no clear call from the source; some entries with a clear call stand among them for comparison. Calls come from the whole dose curve; as a rule, active = well fitted inhibition curve with a large enough effect; inconclusive = small, poorly fitted or top-dose-only effect, or effect the other way; inactive = flat fitted curve, though single readings scatter. Potencies of inconclusive entries are doubtful fits and often do not repeat.
# Test: qHTS screen for small molecules that inhibit ELG1-dependent DNA repair in human embryonic kidney (HEK293T) cells expressing luciferase-tagged ELG1; note: nearly all actives have a fitted effect of over 55% in size
# Conditions: HEK293T ELG1-luciferase reporter, luminescence, 16 h, DNA damage induced by 5-fluorouridine; series mostly up to 46.1 µM
# In short: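 Reporter activity after DNA damage by 5-fluorouridine is monitored. Compound-treated cells incubate 16 hr at 37 °C, then ONE-Glo is added for 30 min before luminescence reading.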
# Potency is the fitted concentration of half-maximal effect.
row,Structure (SMILES),Potency
1,CC(=O)Nc1c2c(nn1-c1ccccc1)CS(=O)C2 (stereo not drawn),"inconclusive: 20.6 µM [activator, partial curve, poor fit]"
2,CCOC(=O)c1cc2c(C)nn(-c3ccccc3)c2s1,"inconclusive: 16.4 µM [activator, partial curve, poor fit]"
3,COc1ccc(NC(=O)CSc2nnc(-c3cccs3)n2Cc2ccco2)cc1OC,active: 20.6 µM
4,N#Cc1ccccc1Sc1ccccc1N,inactive
5,CCC(C)(C)n1nnnc1CN(Cc1cc2cc(OC)c(OC)cc2[nH]c1=O)C1CCCC1,"inconclusive: 16.4 µM [inhibitor, single point]"
6,CCc1noc(C)c1C(=O)N1CCSC1=Nc1cccc(Cl)c1C,inactive
7,O=C(c1ccccc1)c1nn(-c2ccc(Cl)cc2)c(=O)cc1C(F)(F)F,"inconclusive: 29.1 µM [inhibitor, single point]"
8,Cc1ccc(C(=O)OCC(=O)c2c[nH]c3ccccc23)cc1S(=O)(=O)N1CCCCC1,active: 25.9 µM
9,Cc1ccc(C(=O)NCCSc2c(C)[nH]c3ccccc23)cc1[N+](=O)[O-],"inconclusive: 23.1 µM [inhibitor, single point]"
10,CC(C)[C@H](NC(=O)C1CCN(S(=O)(=O)c2ccccc2)CC1)C(=O)NCc1ccncc1,inactive
11,COc1cc2c(c(OC)c1OC)-c1c(cc3c(c1OC)OCO3)C1OC2[C@@H](C)[C@H]1C (stereo partly drawn),inactive
12,COc1ccc(C(=O)Nc2ncc(C)s2)cc1S(=O)(=O)N1CCOCC1,"inconclusive: 10 µM [inhibitor, partial curve, poor fit]"
13,O=C(Nc1ncc(Cc2ccccc2)s1)c1cccs1,"inconclusive: 1.16 µM [activator, partial curve]"
14,CCOC(=O)CCC(NC(=O)CCCCCCCC(=O)NC(CCC(=O)OCC)C(=O)OCC)C(=O)OCC (stereo not drawn),"inconclusive: 18.4 µM [activator, partial curve, poor fit]"
15,COc1ccc2[nH]cc(CCNC(=O)COc3cc(C)cc4oc(=O)cc(C)c34)c2c1,"inconclusive: 4.11 µM [inhibitor, partial curve, poor fit]"
16,CCOC(=O)c1cnc(-n2nc(C)cc2C)nc1NC1CCCC1,"inconclusive: 4.11 µM [inhibitor, partial curve]"
17,O=C(NCC(c1ccco1)N1CCc2ccccc21)c1ccccc1Br (stereo not drawn),inactive
18,Cc1cc(C(=O)NNC(=O)c2ccccc2F)c2ccccc2n1,inactive
19,CC(C)(C)OC(=O)C[C@@H]1C/C=C\C[C@@H](CC(=O)N(CCO)Cc2ccccc2)C(=O)N[C@@H](c2ccccc2)COC1=O,active: 14.6 µM
20,CC(C)c1nc(Cl)c(C#N)c2c1CCCC2,"inconclusive: 9.2 µM [inhibitor, partial curve]"
21,O=C(c1c(F)cccc1Cl)N1CCN(c2ccccn2)CC1,"inconclusive: 32.6 µM [inhibitor, single point]"
22,O=C(COC(=O)c1cccc(S(=O)(=O)N2CCN(c3ccccc3)CC2)c1)NCc1ccco1,inactive
23,O=C(CCN1CCN(CCO)CC1)Nc1ccccc1,inactive
24,CCCOC(=O)c1ccc(-c2c(C)noc2-c2ccc(OC)cc2O)o1,active: 20.6 µM

# 2 records picked at random from the list so far, as already listed:
row,Structure (SMILES),Potency
1,CC(=O)Nc1c2c(nn1-c1ccccc1)CS(=O)C2 (stereo not drawn),"inconclusive: 20.6 µM [activator, partial curve, poor fit]"
4,N#Cc1ccccc1Sc1ccccc1N,inactive

# (cont.)

row,Structure (SMILES),Potency
1,CC(C)(C)C(=O)Nc1ccc(C(=O)COC(=O)C2CC2)cc1,"inconclusive: 14.6 µM [activator, partial curve]"
2,COc1ccc(NC(=O)c2cc(-c3cccc(OC)c3)on2)cc1,"inconclusive: 23.1 µM [activator, single point]"
3,NC1=NCC(O)=C1c1nc2ccccc2[nH]1,inactive
4,CCOC(=O)C1NN=C(C(=O)c2ccccc2)C1c1ccccc1 (stereo not drawn),inactive
5,Cc1ccc(/C=N/NC(=O)C(NC(=O)c2ccccc2)c2n[nH]c(=O)c3ccccc23)cc1 (stereo not drawn),"inconclusive: 29.1 µM [activator, single point]"
6,COc1ccc(S(=O)(=O)Nc2c(C)cc(C)cc2C)c2cccnc12,inactive
7,CCCCn1c(=O)n(CC(=O)Nc2c(CC)cccc2CC)c(=O)c2c1nc(CO)n2CCC,inactive
8,CC(=O)c1ccc(NC(=O)c2cc3ccccc3o2)cc1,"inconclusive: 1.83 µM [activator, full curve]"
9,O=C(Nc1cccc(-c2cnc3ccccc3n2)c1)c1ccc(Cl)cc1,inactive
10,Cc1cccc(Cn2nc(C(C)(C)C)cc2C(=O)Nc2ccc(F)cc2)c1,"inconclusive: 0.517 µM [inhibitor, partial curve, poor fit]"
11,CC1CCCN(c2nc3c(c(=O)n(C)c(=O)n3C)n2CCSc2nc3ccccc3o2)C1 (stereo not drawn),inactive
12,O=C(Nc1ccc2oc(-c3cccnc3)nc2c1)c1ccc2c(c1)OCCO2,"inconclusive: 20.6 µM [activator, partial curve, poor fit]"
13,Cc1ccc(NC(=O)CS(=O)CC(=O)NC23CC4CC(CC(C4)C2)C3)cc1 (stereo not drawn),inactive
14,CC/C=C(/NC(C)=O)c1ccccc1,"inconclusive: 7.3 µM [activator, partial curve]"
15,Cc1cc(C)n(-c2nc(NCC(C)O)c3c4c(sc3n2)CCCC4)n1 (stereo not drawn),active: 16.4 µM
16,Cc1nnsc1Sc1ccccn1,"inconclusive: 23.1 µM [activator, single point]"
17,CC(=O)c1ccc(NC(=O)CNc2cc(S(=O)(=O)N3CCOCC3)ccc2N2CCCC2)cc1,inactive
18,CS(=O)(=O)N1CCc2cc(-c3csc(NC(=O)Cc4ccccc4)n3)ccc21,active: 18.4 µM
19,COc1ccccc1N1CCN(C(=O)c2cc3c(=O)n(C)c4ccccc4c3n2C)CC1,active: 16.4 µM
20,COc1ccccc1N(CC(=O)Nc1c(C)cccc1C)S(C)(=O)=O,inactive
21,C=C1SC(Nc2c(C)cc(C)cc2C)=NC12CCCCC2,active: 23.1 µM
22,c1ccc(N2CCN(c3nnc(Cc4cccnc4)c4ccccc34)CC2)nc1,"inconclusive: 14.6 µM [inhibitor, partial curve]"
23,COc1cccc(N2CC(O)=C(c3nc4ccccc4s3)C2=N)c1,"inconclusive: 6.51 µM [inhibitor, single point]"
24,COc1ccc(-n2ncc(C(=O)NC3CC3)c2C2CCN(C(=O)OC(C)(C)C)CC2)cc1,inactive
